For 33 targets, log2 fold change results are on record in the supplement of paper PMC10849652.

The chains behind the UniProt entries cited, without tags or fusion partners. Where a name states a change or a piece, a line headed by the entry shows the natural chain unless it says otherwise.
UniProt P08582: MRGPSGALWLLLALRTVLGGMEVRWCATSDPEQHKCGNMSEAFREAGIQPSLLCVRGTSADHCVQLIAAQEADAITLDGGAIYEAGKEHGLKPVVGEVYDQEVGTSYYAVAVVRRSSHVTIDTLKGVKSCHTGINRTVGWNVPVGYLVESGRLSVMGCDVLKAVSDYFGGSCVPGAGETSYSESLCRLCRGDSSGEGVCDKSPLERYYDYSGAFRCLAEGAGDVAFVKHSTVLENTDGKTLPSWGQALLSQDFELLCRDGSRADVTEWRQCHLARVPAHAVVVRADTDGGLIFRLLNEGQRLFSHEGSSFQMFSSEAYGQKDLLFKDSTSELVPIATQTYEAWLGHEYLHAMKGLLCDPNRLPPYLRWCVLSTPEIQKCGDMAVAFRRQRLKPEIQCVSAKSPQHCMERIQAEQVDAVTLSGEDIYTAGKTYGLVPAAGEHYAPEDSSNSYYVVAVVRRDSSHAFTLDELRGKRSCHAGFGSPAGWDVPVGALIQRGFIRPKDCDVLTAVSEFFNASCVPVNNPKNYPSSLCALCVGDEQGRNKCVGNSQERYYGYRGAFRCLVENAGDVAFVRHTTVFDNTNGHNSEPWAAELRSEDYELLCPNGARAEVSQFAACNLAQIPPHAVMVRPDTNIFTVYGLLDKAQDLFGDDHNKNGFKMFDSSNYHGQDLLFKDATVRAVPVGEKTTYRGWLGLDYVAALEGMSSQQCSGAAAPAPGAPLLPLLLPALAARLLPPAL
UniProt O00470: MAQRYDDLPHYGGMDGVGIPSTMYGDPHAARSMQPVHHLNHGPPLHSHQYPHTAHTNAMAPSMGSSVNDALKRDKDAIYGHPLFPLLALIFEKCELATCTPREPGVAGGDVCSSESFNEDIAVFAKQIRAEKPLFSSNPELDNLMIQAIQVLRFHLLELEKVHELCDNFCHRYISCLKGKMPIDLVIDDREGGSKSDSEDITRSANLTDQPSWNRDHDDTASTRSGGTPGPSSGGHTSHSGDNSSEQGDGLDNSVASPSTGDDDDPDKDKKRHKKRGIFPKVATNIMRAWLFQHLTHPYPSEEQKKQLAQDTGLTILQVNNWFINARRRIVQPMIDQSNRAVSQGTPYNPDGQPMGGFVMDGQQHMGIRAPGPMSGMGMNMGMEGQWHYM
UniProt A4D2B0: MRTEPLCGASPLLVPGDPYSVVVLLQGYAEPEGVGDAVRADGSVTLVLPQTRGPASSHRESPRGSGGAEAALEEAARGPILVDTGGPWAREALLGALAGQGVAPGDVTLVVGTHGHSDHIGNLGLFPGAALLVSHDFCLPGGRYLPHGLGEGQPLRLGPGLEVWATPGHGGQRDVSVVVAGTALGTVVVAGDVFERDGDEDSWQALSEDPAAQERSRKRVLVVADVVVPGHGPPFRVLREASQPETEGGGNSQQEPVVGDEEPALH
UniProt Q6NUT3: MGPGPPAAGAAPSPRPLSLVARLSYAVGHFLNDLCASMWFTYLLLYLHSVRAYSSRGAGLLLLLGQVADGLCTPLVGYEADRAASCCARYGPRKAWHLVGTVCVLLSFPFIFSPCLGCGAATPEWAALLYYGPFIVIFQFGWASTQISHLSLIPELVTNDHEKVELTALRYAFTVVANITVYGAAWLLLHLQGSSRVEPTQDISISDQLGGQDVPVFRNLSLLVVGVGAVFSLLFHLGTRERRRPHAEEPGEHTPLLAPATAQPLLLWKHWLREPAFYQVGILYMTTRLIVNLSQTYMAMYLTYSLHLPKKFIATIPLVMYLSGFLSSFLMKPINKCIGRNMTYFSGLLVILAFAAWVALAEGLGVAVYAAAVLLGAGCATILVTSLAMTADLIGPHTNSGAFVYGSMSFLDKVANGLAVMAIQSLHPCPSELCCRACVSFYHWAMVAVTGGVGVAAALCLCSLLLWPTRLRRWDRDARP
UniProt O43934: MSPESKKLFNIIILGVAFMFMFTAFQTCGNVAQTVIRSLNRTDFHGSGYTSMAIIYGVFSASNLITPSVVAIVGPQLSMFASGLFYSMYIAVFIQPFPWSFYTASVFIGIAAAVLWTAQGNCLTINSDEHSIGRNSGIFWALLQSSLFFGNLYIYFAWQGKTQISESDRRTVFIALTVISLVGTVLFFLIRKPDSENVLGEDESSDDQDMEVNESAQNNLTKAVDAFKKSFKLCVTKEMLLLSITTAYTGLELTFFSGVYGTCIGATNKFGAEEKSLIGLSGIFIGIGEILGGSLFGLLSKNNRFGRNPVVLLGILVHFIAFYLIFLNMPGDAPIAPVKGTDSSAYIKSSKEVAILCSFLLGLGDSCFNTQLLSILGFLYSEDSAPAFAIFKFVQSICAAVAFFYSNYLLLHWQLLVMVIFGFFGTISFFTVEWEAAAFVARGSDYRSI
UniProt Q5SR56: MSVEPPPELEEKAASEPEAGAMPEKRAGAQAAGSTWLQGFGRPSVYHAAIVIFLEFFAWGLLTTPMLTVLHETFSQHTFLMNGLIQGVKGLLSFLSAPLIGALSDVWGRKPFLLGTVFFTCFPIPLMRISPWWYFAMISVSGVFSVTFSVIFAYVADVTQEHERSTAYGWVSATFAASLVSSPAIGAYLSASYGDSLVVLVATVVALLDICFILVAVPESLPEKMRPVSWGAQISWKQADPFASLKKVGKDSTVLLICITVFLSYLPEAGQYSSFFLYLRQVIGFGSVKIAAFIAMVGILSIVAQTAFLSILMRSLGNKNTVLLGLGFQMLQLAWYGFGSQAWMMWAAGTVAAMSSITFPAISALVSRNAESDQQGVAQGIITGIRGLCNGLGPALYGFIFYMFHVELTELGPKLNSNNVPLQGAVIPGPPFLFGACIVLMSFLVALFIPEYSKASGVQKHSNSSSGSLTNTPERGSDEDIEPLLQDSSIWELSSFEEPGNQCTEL
UniProt O75586: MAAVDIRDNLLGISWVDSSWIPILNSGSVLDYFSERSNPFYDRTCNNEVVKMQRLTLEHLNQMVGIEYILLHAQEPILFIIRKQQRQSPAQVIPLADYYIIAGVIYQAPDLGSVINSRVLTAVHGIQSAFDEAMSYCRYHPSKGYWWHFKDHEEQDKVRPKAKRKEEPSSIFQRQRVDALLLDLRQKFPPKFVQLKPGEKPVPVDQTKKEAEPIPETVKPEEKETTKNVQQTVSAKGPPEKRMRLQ
UniProt Q8TCB7: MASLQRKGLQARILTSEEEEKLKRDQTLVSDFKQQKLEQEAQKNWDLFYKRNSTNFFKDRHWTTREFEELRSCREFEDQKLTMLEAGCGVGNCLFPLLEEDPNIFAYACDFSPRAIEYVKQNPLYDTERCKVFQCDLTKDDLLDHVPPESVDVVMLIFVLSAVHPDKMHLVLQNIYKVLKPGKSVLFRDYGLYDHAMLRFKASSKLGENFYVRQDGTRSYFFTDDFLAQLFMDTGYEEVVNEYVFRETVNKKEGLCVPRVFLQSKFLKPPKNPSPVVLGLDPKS
UniProt A0JLT2: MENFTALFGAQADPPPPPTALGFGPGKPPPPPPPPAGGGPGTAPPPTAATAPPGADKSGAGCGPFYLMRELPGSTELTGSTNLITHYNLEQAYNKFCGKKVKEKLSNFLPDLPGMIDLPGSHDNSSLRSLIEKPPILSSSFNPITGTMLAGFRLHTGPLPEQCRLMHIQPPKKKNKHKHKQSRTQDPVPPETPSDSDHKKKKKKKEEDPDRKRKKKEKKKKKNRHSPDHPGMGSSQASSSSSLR
UniProt Q9BTE3: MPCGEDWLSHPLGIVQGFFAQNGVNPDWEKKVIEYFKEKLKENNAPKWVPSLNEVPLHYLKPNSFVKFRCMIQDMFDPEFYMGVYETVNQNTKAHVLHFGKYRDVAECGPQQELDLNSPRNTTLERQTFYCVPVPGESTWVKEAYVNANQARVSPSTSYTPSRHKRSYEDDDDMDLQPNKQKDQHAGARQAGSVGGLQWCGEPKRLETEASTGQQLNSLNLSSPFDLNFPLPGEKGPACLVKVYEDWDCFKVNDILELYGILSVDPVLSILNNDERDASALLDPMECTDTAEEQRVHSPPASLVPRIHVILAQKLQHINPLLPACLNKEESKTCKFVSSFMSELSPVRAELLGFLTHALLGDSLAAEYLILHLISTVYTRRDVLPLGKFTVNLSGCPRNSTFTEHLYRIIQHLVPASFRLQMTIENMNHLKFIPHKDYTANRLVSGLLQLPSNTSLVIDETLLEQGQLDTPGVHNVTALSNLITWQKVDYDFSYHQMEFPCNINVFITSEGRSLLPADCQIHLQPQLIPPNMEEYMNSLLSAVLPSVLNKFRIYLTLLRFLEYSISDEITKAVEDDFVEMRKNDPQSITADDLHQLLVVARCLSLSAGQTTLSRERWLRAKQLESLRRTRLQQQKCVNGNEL
UniProt O00255, whole entry, looked up: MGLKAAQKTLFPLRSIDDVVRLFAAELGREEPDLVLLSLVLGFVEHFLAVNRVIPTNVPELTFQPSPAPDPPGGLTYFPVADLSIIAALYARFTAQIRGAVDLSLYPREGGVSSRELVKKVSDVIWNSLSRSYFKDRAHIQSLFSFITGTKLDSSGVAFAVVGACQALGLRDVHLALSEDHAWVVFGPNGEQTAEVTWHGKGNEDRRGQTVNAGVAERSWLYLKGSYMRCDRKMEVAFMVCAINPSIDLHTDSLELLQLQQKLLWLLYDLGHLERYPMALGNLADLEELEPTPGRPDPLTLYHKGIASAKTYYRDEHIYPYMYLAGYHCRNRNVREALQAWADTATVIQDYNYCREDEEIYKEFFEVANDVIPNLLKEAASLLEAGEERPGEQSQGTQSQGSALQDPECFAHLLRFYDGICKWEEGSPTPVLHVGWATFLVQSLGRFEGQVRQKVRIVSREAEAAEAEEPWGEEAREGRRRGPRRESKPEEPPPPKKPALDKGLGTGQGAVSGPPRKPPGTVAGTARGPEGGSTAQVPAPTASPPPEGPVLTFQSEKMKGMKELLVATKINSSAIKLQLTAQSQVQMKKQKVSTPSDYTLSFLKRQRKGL
UniProt Q9Y4C4: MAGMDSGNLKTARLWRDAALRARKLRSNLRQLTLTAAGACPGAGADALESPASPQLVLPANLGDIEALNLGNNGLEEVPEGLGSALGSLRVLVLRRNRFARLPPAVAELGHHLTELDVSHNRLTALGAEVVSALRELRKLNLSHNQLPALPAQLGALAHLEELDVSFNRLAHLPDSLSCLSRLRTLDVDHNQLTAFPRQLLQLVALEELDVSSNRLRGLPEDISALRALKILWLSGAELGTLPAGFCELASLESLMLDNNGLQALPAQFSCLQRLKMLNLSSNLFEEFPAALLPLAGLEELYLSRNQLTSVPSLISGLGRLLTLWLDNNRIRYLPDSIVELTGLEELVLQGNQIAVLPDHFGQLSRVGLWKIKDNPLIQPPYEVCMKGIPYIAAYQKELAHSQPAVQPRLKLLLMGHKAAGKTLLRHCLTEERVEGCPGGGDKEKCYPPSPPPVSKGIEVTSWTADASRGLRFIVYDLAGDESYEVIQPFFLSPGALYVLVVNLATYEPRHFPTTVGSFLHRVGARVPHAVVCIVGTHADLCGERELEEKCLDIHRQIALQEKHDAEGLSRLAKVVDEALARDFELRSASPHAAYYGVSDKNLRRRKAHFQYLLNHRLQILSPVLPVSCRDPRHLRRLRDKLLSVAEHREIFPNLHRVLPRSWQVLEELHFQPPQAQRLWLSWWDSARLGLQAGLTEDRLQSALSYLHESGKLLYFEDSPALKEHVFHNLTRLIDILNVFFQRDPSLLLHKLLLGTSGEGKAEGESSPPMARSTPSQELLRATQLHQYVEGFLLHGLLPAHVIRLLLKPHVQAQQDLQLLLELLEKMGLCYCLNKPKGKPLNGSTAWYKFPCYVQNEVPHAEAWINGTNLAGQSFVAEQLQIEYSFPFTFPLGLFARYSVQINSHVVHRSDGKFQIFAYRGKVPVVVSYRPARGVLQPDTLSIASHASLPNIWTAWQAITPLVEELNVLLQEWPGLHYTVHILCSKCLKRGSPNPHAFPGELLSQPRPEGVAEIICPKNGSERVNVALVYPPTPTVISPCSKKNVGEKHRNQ
UniProt Q6ZNC8: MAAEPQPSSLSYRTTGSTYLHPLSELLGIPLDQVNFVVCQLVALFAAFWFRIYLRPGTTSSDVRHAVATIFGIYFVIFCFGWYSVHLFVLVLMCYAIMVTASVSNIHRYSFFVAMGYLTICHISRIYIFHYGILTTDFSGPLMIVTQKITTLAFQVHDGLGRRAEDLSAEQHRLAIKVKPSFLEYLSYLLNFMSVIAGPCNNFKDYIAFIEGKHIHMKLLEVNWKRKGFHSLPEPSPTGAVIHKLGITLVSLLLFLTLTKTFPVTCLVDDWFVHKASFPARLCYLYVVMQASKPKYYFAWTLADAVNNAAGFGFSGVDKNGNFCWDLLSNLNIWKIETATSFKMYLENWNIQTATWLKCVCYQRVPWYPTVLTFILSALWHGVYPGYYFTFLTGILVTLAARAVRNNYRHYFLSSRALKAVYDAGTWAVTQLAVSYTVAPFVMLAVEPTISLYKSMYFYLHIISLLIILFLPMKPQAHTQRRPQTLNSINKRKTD
UniProt Q9P086: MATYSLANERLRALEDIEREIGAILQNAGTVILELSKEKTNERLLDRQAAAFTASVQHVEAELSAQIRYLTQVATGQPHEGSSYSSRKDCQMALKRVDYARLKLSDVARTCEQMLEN

This is one part of the list.

Compound in one assay: CN1CC[C@H](c2c(O)cc(O)c3c(=O)cc(-c4ccccc4Cl)oc23)[C@H](O)C1 [alvocidib]
Briefly: log2 fold change, soluble protein after heating vs DMSO (PISA); higher = thermal stabilisation; K562 lysate, 10 uM; active = over 0.2 and 3.5 SD of the protein, either way, in both replicates (recomputed). In short, it runs like this: (§1)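 K562 pellets were dounce-homogenised in PBS pH 7.4 with 1 mM MgCl2, and the crude extract at 1 mg/mL protein was treated with 10 μM compound for 30 min. Aliquots were heated for 3 min across 48°C-58°C, pooled, and brought to 0.5% NP-40 at 4°C; soluble protein was the supernatant after 21,000xg for 90 min. Soluble protein was quantified by TMTpro 16plex LC-MS/MS with channel sums equalised, and reported as log2 fold change in thermal stability against DMSO controls, with values from duplicates.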
On to MDM4 (UniProt O15151), for which the log2 fold change is inactive: -0.139.
The same measure, in the same setting: the figure for MEIOB isoform 2 (UniProt Q8N635) is inactive: 0.115.
Turning to METTL17 isoform 3 (UniProt Q9H7H0), the log2 fold change was inactive: 0.15.
Still for that read-out and setting: in the case of MELTF (UniProt P08582) it was inactive: 0.025.
Same read-out and setting: the figure for MEIS1 (UniProt O00470) is inactive: -0.117; for MBLAC1 (UniProt A4D2B0) it is inactive: -0.014.
Still for that read-out and setting: the figure for MFSD12 isoform 3 (UniProt Q6NUT3) is inactive: 0.024; for MFSD11 (UniProt O43934) it is inactive: -0.059; for METTL2B (UniProt Q6P1Q9) it is inactive: -0.024.
On to MFSD14B (UniProt Q5SR56), for which the log2 fold change is inactive: -0.042.
With MATK isoform 2 (UniProt P42679), the log2 fold change was inactive: -0.099.
Still for that read-out and setting: in the case of METAP2 isoform 2 (UniProt P50579) it was inactive: -0.019.
On the same count and under the same terms, the figure for MBD4 (UniProt O95243) is inactive: -0.024; for MED6 (UniProt O75586) it is inactive: -0.046; for METTL6 (UniProt Q8TCB7) it is inactive: -0.098.
As for MCRS1 isoform 2 (UniProt Q96EZ8), the log2 fold change is inactive: 0.147.
MED9 (UniProt Q9NWA0): the log2 fold change was inactive: 0.125.
Still for that read-out and setting: the figure for MEF2C isoform 2 (UniProt Q06413) is inactive: 0.082; for MED19 (UniProt A0JLT2) it is inactive: 0.109.

Compound in a further assay: CN1CCc2c(c3ccccc3n2Cc2ccc(C(=O)NO)cc2)C1 [Tubastatin A]
The description is as above. The gist of the method:
as §1
With MCMBP isoform 2 (UniProt Q9BTE3), the log2 fold change is inactive: -0.142.
The same measure, in the same setting: the figure for MEN1 (UniProt O00255) is inactive: -0.132; for MFSD11 (UniProt O43934) it is inactive: -0.036; for MFSD14B (UniProt Q5SR56) it is inactive: 0.264.
On the same count and under the same terms, in the case of MATK isoform 2 (UniProt P42679) it was inactive: 0.018; in that of METAP2 isoform 2 (UniProt P50579), inactive: 0.179; in that of MCTS2P, A0A3B3IRV3, inactive: 0.063.
The same measure, in the same setting: the figure for METTL25 (UniProt Q8N6Q8) is inactive: -0.035; for MBTD1 (UniProt Q05BQ5) it is inactive: 0.044; for MEX3A (UniProt A1L020) it is inactive: 0.037.
For the target MED6 (UniProt O75586), the log2 fold change was inactive: -0.118.
Same read-out and setting: in the case of METTL6 (UniProt Q8TCB7) it was inactive: -0.362; in that of MFHAS1 (UniProt Q9Y4C4), inactive: 0.214.
Still for that read-out and setting: in the case of MED9 (UniProt Q9NWA0) it was inactive: 0.042; in that of MBOAT1 (UniProt Q6ZNC8), inactive: 0.461.
Same read-out and setting: in the case of METTL15 (UniProt A6NJ78) it was inactive: -0.002; in that of MED19 (UniProt A0JLT2), inactive: -0.141.

Compound in a further assay: CNC(=O)C1=CC=CC=C1NC2=NC(=NC=C2Cl)NC3=C(C=C(C=C3)N4CCOCC4)OC
The assay is described as above. The gist of the method:
as §1
As for MCMBP isoform 2 (UniProt Q9BTE3), the log2 fold change was inactive: 0.102.
Same read-out and setting: in the case of MEX3C (UniProt Q5U5Q3) it was inactive: 0.01; in that of MELTF (UniProt P08582), inactive: 0.079; in that of MEN1 (UniProt O00255), inactive: -0.026.
Still for that read-out and setting: the figure for MBLAC1 (UniProt A4D2B0) is inactive: 0.126; for MFSD12 isoform 3 (UniProt Q6NUT3) it is inactive: -0.051; for MED11 (UniProt Q9P086) it is inactive: 0.166.
Same read-out and setting: in the case of MFSD11 (UniProt O43934) it was inactive: 0.016.
As for MFSD14B (UniProt Q5SR56), the log2 fold change was inactive: -0.087.
With MCTS2P, A0A3B3IRV3, the log2 fold change is inactive: -0.044.
Still for that read-out and setting: the figure for METTL5 (UniProt H0YFV5) is inactive: 0.088.
Turning to MFHAS1 (UniProt Q9Y4C4), the log2 fold change is inactive: -0.072.
Still for that read-out and setting: in the case of METTL7B (UniProt Q6UX53) it was inactive: 0.291.
Same read-out and setting: in the case of MBOAT1 (UniProt Q6ZNC8) it was inactive: 0.049.

Compound in the next assay: CNC(=O)c1ccc(Nc2ncc(C(F)(F)F)c(NCc3nccnc3N(C)S(C)(=O)=O)n2)cc1 [defactinib]
The description is as above. The gist of the method:
as §1
With MDM4 (UniProt O15151), the log2 fold change was inactive: 0.008.
For MCMBP isoform 2 (UniProt Q9BTE3), the log2 fold change was inactive: 0.089.
On the same count and under the same terms, the figure for MELTF (UniProt P08582) is inactive: 0.031.
The same measure, in the same setting: the figure for MEN1 (UniProt O00255) is inactive: 0.061; for MBLAC1 (UniProt A4D2B0) it is inactive: 0.051; for MFSD12 isoform 3 (UniProt Q6NUT3) it is inactive: 0.057.
As for MED11 (UniProt Q9P086), the log2 fold change is inactive: -0.077.
For the target METTL25 (UniProt Q8N6Q8), the log2 fold change was inactive: -0.017.
On the same count and under the same terms, the figure for MEX3A (UniProt A1L020) is inactive: -0.068; for METTL23 (UniProt Q86XA0) it is inactive: 0.064; for MED6 (UniProt O75586) it is inactive: -0.058.
For the target METTL6 (UniProt Q8TCB7), the log2 fold change is inactive: -0.034.
On the same count and under the same terms, in the case of MCRS1 isoform 2 (UniProt Q96EZ8) it was inactive: -0.203; in that of MFHAS1 (UniProt Q9Y4C4), inactive: 0.024.
Still for that read-out and setting: the figure for MBOAT1 (UniProt Q6ZNC8) is inactive: 0.052; for MEF2C isoform 2 (UniProt Q06413) it is inactive: 0; for METTL15 (UniProt A6NJ78) it is inactive: 0.102.
With MED19 (UniProt A0JLT2), the log2 fold change was inactive: 0.149.
